Source: patent publication US20260034146A1, “NEUROACTIVE 19-ALKOXY-17-S[…], PRODRUGS THEREOF, AND METHODS OF TREATMENT USING SAME” (priority 2012, published 2026)

What was measured:
[1] = system: Tadpole; assay: Tadpole loss of righting reflex (LRR) and loss of swimming reflex (LSR); format: in vivo; conditions: Hill coefficient, ± SEM; for Tadpole LRR nHill: loss of righting reflex; for Tadpole LSR nHill: loss of swimming reflex
Experimental: Table 3 discloses the anesthetic effects of the compounds of the present disclosure. In particular, the anesthetic effect of the compounds of the present disclosure on Loss of Righting Reflex (LRR) and Loss of Swimming Reflex (LSR).
Methods used are known in the art (see Jiang, X., et al.). Error limits are calculated as standard error of the mean (N=10 or more animals at each of five or more different concentrations).

[2] = system: picrotoxin binding site on GABAA receptors; assay: [35S]-TBPS displacement (inhibition of [35S]-TBPS binding); conditions: Hill coefficient of the TBPS displacement curve; ± SEM
Experimental: The IC50 values for non-competitive displacers of [^35S]-TBPS from the picrotoxin binding site on GABAA receptors are reported in Table 1.
^aResults presented are from duplicate experiments performed in triplicate. Error limits are calculated as standard error of the mean. Methods used are known in the art (see Jiang, X., et al., Neurosteroid analogues. 9. Conformationally constrained pregnanes: structure-activity studies of 13,24-cyclo-18,21-dinorcholane analogues of the GABA modulatory and anesthetic steroids (3α,5α)- and […]. J. Med. Chem., 46: 5334-48 (2003)—the contents of which are hereby incorporated by reference in their entirety).

COC[C@]12CCC(=O)C[C@@H]1CC[C@H]1[C@@H]3CC[C@H](OC)[C@@]3(C)CC[C@@H]12 [7, MQ-88, (5α,17β)-17,19-Dimethoxyandrostan-3-one]
Tadpole LRR nHill [1]: −2.41 ± 0.56 | Tadpole LSR nHill [1]: −33.3 ± 0.10 | nHill, inhibition of [35S]-TBPS binding [2]: 1.27 ± 0.15

COC[C@]12CC[C@@H](O)C[C@@H]1CC[C@H]1[C@@H]3CC[C@H](OC)[C@@]3(C)CC[C@@H]12 [8, MQ-89, (5α,17β)-17,19-Dimethoxyandrostan-3-ol]
Tadpole LRR nHill [1]: −2.32 ± 0.75 | Tadpole LSR nHill [1]: −16.1 ± 0.64 | nHill, inhibition of [35S]-TBPS binding [2]: 1.05 ± 0.03

COC[C@]12CC[C@@H](O)C[C@@H]1CC[C@@H]1[C@@H]2CC[C@@]2(C)[C@H]1CC[C@@]21CO1 [12, MQ-90, (3α,5α,17β)-19-Methoxyspiro[androstane-17,2′-oxiran]-3-ol]
Tadpole LRR nHill [1]: −2.53 ± 0.11 | Tadpole LSR nHill [1]: −17.9 ± 71 | nHill, inhibition of [35S]-TBPS binding [2]: 1.06 ± 0.04

COC[C@]12CC[C@@H](O)C[C@@H]1CC[C@@H]1[C@@H]2CC[C@]2(C)C(C#N)=CC[C@@H]12 [15, MQ-91, (3α,5α)-3-Hydroxy-19-methoxyandrost-16-ene-17-carbonitrile]
Tadpole LRR nHill [1]: −7.11 ± 28.0 | Tadpole LSR nHill [1]: −21.4 ± 0.7 | nHill, inhibition of [35S]-TBPS binding [2]: 1.01 ± 0.10

COC[C@]12CC[C@@H](O)C[C@@H]1CC[C@H]1[C@@H]3CC[C@H](C#N)[C@@]3(C)CC[C@@H]12 [16, MQ-92, (3α,5α,17β)-3-Hydroxy-19-methoxyandrostane-17-carbonitrile]
Tadpole LRR nHill [1]: −3.37 ± 1.34 | Tadpole LSR nHill [1]: −21.7 ± 0.6 | nHill, inhibition of [35S]-TBPS binding [2]: 1.24 ± 0.14

COC[C@]12CC[C@@H](O)C[C@@H]1CC[C@H]1[C@@H]3CC[C@H](C(C)=O)[C@@]3(C)CC[C@@H]12 [17, MQ-93, (3α,5α)-3-Hydroxy-19-methoxypregnan-20-one]
Tadpole LRR nHill [1]: −2.74 ± 1.12 | Tadpole LSR nHill [1]: −36.3 ± 0.1 | nHill, inhibition of [35S]-TBPS binding [2]: 1.17 ± 0.09

COC[C@]12CC[C@@H](O)C[C@@H]1CC[C@H]1[C@@H]3CC[C@H](C(=O)CO)[C@@]3(C)CC[C@@H]12 [20, MQ-98, (3α,5α)-3,21-Dihydroxy-19-methoxypregnan-20-one]
Tadpole LRR nHill [1]: −2.54 ± 1.23 | Tadpole LSR nHill [1]: −33.3 ± 0.1 | nHill, inhibition of [35S]-TBPS binding [2]: 0.88 ± 0.12

COC[C@]12CCC(=O)C=C1CC[C@@H]1[C@@H]2CC[C@]2(C)[C@@H](OC)CC[C@@H]12 [24, MQ-99, (17β)-17,19-Dimethoxyandrost-4-en-3-one]
nHill, inhibition of [35S]-TBPS binding [2]: 1.24 ± 0.47

COC[C@]12CC[C@@H](O)CC1=CC[C@@H]1[C@@H]2CC[C@]2(C)[C@@H](OC)CC[C@@H]12 [25, MQ-101, (3α,17β)-17,19-Dimethoxyandrost-5-en-3-ol]
Tadpole LRR nHill [1]: −2.80 ± 1.13 | Tadpole LSR nHill [1]: −21.1 ± 0 | nHill, inhibition of [35S]-TBPS binding [2]: 0.94 ± 0.09

COC[C@]12CC[C@H](O)CC1=CC[C@@H]1[C@@H]2CC[C@]2(C)[C@@H](OC)CC[C@@H]12 [26, MQ-100, (3β,17β)-17,19-Dimethoxyandrost-5-en-3-ol]
nHill, inhibition of [35S]-TBPS binding [2]: 1.19 ± 0.24

COC[C@]12CC[C@@H](O)C[C@@H]1CC[C@H]1[C@@H]3CC[C@H]([N+](=O)[O-])[C@@]3(C)CC[C@@H]12 [29, MQ-97, (3α,5α,17β)-19-methoxy-17-nitroandrostan-3-ol]
Tadpole LRR nHill [1]: −1.84 ± 0.11 | Tadpole LSR nHill [1]: −33.3 ± 0.1 | nHill, inhibition of [35S]-TBPS binding [2]: 0.88 ± 0.08

COC[C@]12CC[C@H](O)C[C@@H]1CC[C@H]1[C@@H]3CC[C@H](OC)[C@@]3(C)CC[C@@H]12 [31, MQ-96, (3β,5α,17β)-17,19-Dimethoxyandrostan-3-ol]
Tadpole LRR nHill [1]: −1.66 ± 0.51 | Tadpole LSR nHill [1]: −3.27 ± 2.5 | nHill, inhibition of [35S]-TBPS binding [2]: 1.27 ± 0.33
